# Data taken from PubChem BioAssay AID493191 (Broad Institute, 2011).
# The whole screen tested about 1,300 compounds, of which about 330 (25%) were called active. How the calls were made is not given here. The list shows a part of the results, in another mix than the full data. Entries with a potency or affinity are not part of this list.
# Test: MALME3 melanoma cell viability loss, dose response, orthogonal assay for MITF inhibitor project, CellTiter-Glo, cherry-picked (AID 493191)
# Details: CellTiter-Glo luminescence, 24 h; at 35 µM (top of the series)
row,SMILES,"activity change, negative = inhibition"
1,COc1ccc(C(=O)NC(=O)Nc2cc(C)ccn2)cc1,inactive: -25.7%
2,COc1cc(C(=O)N/N=C(\c2ccccc2)c2ccccn2)cc(OC)c1OC,inactive: -45.1%
3,Cc1cc2oc3ccc(NCCC4CCCN4C)cc3c(=O)c2cc1C (stereo not given),-92.6%
4,O=c1c2ccccc2cnn1CCOc1ccccc1,inactive: -21.9%
5,Cn1nnnc1Sc1ncnc2scc(-c3cccs3)c12,inactive: -17.8%
6,Cc1ccc(S(=O)(=O)CC(CN2CCCCC2)N2CCCCC2)cc1 (stereo not given),inactive: 6.97%
7,COc1cccc2sc(N(CCCN(C)C)C(=O)C(c3ccccc3)c3ccccc3)nc12,-94.5%
8,O=C(NC1CC1)C1CCN(S(=O)(=O)c2ccc(Cl)c([N+](=O)[O-])c2)CC1,inactive: -35.8%
9,COc1cccc(C(=O)Nc2ccc3c(cc2=O)[C@@H](NC(C)=O)CCc2cc(OC)c(OC)c(OC)c2-3)c1,inactive: -7.94%
10,Cc1ccccc1Cn1c(=N)n(CC(=O)c2ccc([N+](=O)[O-])cc2)c2ccccc21,inactive: -24.4%
11,COC(=O)c1c(NC(=O)c2nc3ccccc3s2)sc2c1CC(C)(C)NC2(C)C,inactive: -5.34%
12,CCCCC1C(=O)N(c2ccccc2)N(c2ccc(O)cc2)C1=O (stereo not given),inactive: -3.31%
13,COC(=O)C1=C(C)N(Cc2ccccc2)C(=NCCc2cccnc2)N[C@H]1c1ccc(Br)cc1,-95.5%
14,Cc1ccc(SCc2cn3cc(Cl)ccc3n2)cc1,inactive: -21.6%
15,O=C(NC1CCCCC1)C(c1cccnc1)N(C(=O)CCl)c1cccc(Cl)c1 (stereo not given),inactive: -10.9%
16,CC(=O)N(\C=C/C=C/C=C1\Sc2ccccc2C1=O)c1ccccc1,inactive: -36%
17,Cc1ccc2nc(-c3cccnc3)oc2c1,inactive: -3.42%
18,CCCCn1c(=O)[nH]c(=O)c2c1nc(Cn1ncc(Cl)c(Cl)c1=O)n2CCC,-84.6%
19,Cc1ccc(NC(=O)c2ccccc2)cc1,inactive: 5.52%
20,O=C(N/N=C/c1ccc([N+](=O)[O-])o1)c1sc2ccccc2c1Cl,inactive: -55.5%
21,O=C(Nc1ccc(Cl)c(S(=O)(=O)N2CCOCC2)c1)c1ccc(OCC2CCCO2)cc1 (stereo not given),inactive: -44.9%
22,CN(C)Cc1c(O)ccc2c1O/C(=C\C=C\c1ccccc1)C2=O,inactive: 7.22%
23,CC(=O)N(c1nnc(-c2cccc(C)c2)s1)C1CCCC1,inactive: 1.3%
24,C=C1C(=O)C=C[C@]2(C)C[C@@H]3OC(=O)[C@](C)(O)[C@H]3C[C@@H]12,inactive: -38.6%
25,O=C(O)c1cccc(NC(=O)c2cccc(NC(=O)C3CCCO3)c2)c1 (stereo not given),inactive: 2.35%
26,CCOc1ccc(-c2noc(CCC(=O)O)n2)cc1,inactive: 6.15%
27,CCOC(=O)N1CCC(NC(=O)C2CCCN(Cc3nc(-c4cccc(C)c4)oc3C)C2)CC1 (stereo not given),inactive: -2.51%
28,COC(=O)C1=C(C)N(Cc2ccccc2)C(=NCc2ccccc2)N[C@H]1c1ccccc1,-93.9%
29,OCc1ccc(N=Nc2ccccc2)cc1,inactive: 4.1%
30,O=[N+]([O-])c1ccc(-n2nnnc2-c2ccccc2)c([N+](=O)[O-])c1,-93%

# Ordered by SMILES length (falling): three of the compounds above
row,SMILES,"activity change, negative = inhibition"
8,O=C(NC1CC1)C1CCN(S(=O)(=O)c2ccc(Cl)c([N+](=O)[O-])c2)CC1,inactive: -35.8%
5,Cn1nnnc1Sc1ncnc2scc(-c3cccs3)c12,inactive: -17.8%
26,CCOc1ccc(-c2noc(CCC(=O)O)n2)cc1,inactive: 6.15%
